Measured values taken from paper PMC9454758.
Results are given in words; binding and its absence hold for the method and conditions named. Some entries that bind do so weakly or less than the wild type. For part of these data: Sequences can lack the tags named with a protein. Each block holds one binder with its values, some of them ahead of it.

Columns and labels:
Assay in all cases: western blot of total protein extracts (dimer band); total protein extracts of U251 lines (MLC1-WT, T17D) and primary mouse astrocytes, anti-MLC1 pAb; control, hyposmotic solution, hyposmotic solution with 10 µM KN93
[1] = biological target: human recombinant MLC1 wild-type (MLC1-WT), Xpress-tagged, stably overexpressed in U251 astrocytoma cells (human) (UniProt Q15049)
[2] = biological target: MLC1-T17D mutant (phosphorylation mimicking), stably expressed in U251 cells (human) (UniProt Q15049)
[3] = biological target: endogenous MLC1 protein of primary mouse astrocytes (mouse (endogenous in primary astrocytes)) (UniProt Q8VHK5)

- binding [1]: binds
B1: human recombinant MLC1 wild-type (MLC1-WT), Xpress-tagged, stably overexpressed in U251 astrocytoma cells (protein, UniProt Q15049 1-377)
chain: MTQEPFREELAYDRMPTLERGRQDPASYAPDAKPSDLQLSKRLPPCFSHKTWVFSVLMGSCLLVTSGFSLYLGNVFPAEMDYLRCAAGSCIPSAIVSFTVSRRNANVIPNFQILFVSTFAVTTTCLIWFGCKLVLNPSAININFNLILLLLLELLMAATVIIAARSSEEDCKKKKGSMSDSANILDEVPFPARVLKSYSVVEVIAGISAVLGGIIALNVDDSVSGPHLSVTFFWILVACFPSAIASHVAAECPSKCLVEVLIAISSLTSPLLFTASGYLSFSIMRIVEMFKDYPPAIKPSYDVLLLLLLLVLLLQAGLNTGTAIQCVRFKVSARLQGASWDTQNGPQERLAGEVARSPLKEFDKEKAWRAVVVQMAQ

- binding [2]: binds
B2: MLC1-T17D mutant (phosphorylation mimicking), stably expressed in U251 cells (protein, UniProt Q15049 1-377)
chain: MTQEPFREELAYDRMPDLERGRQDPASYAPDAKPSDLQLSKRLPPCFSHKTWVFSVLMGSCLLVTSGFSLYLGNVFPAEMDYLRCAAGSCIPSAIVSFTVSRRNANVIPNFQILFVSTFAVTTTCLIWFGCKLVLNPSAININFNLILLLLLELLMAATVIIAARSSEEDCKKKKGSMSDSANILDEVPFPARVLKSYSVVEVIAGISAVLGGIIALNVDDSVSGPHLSVTFFWILVACFPSAIASHVAAECPSKCLVEVLIAISSLTSPLLFTASGYLSFSIMRIVEMFKDYPPAIKPSYDVLLLLLLLVLLLQAGLNTGTAIQCVRFKVSARLQGASWDTQNGPQERLAGEVARSPLKEFDKEKAWRAVVVQMAQ

- binding [3]: binds
B3: endogenous MLC1 protein of primary mouse astrocytes (protein, UniProt Q8VHK5 1-382)
chain: MTREGQFREELGYDRMPTLERGRQDAGRQDPGSYTPDSKPKDLQLSKRLPPCFSYKTWVFSVLMGSCLLVTSGFSLYLGNVFPSEMDYLRCAAGSCIPSAIVSFAVGRRNVSAIPNFQILFVSTFAVTTTCLIWFGCKLILNPSAININFNLILLLLLELLMAATVIISARSSEEPCKKKKGSISDGSNILDEVTFPARVLKSYSVVEVIAGVSAVLGGVIALNVEEAVSGPHLSVTFFWILVACFPSAIASHVTAECPSKCLVEVLIAISSLTSPLLFTASGYLSFSVMRVVEIFKDYPPAIKSYDVLLLLLLLLLLLQGGLNTGTAIQCVSFKVSARLQAASWDPQSCPQERPAGEVVRGPLKEFDKEKAWRAVVVQMAQ
